The record followed here is article PMC9698730 (Molecules, 2022).

For this assay, the system named is RNA-FL complex. The format is binding, SARS-CoV-2. As to the method:
To further address whether the ligands may modify the oligomeric status of the FL protein, we performed dynamic light scattering experiments. […] We then tested whether ligand binding to FL could be competitive with nucleic acids binding.
The experiments were performed on a Malvern nanosizer apparatus. The temperature was set at 20 °C, and 10 scans with a duration of 10 s each were acquired in duplicate for each time and sample. The size distribution in the intensity of the scattered light was obtained using the Cumulants method from the instrumental software, yielding the hydrodynamic diameter. The N NTD concentration was in the range of 40–60 μM, the FL concentration was in the range of 1 to 10 µM in 20 mM Tris buffer at pH = 7.9 containing 100 mM NaCl. The melting experiments were performed at a heating rate of 1 °C/min over the range 30 °C to 65 °C in sealed disposable cuvettes. The apparent melting temperature, Tm, was determined by the first derivative of the melting curve.

As to `COc1ccc2cc([C@H](C)C(=O)O)ccc2c1` [Naproxen, naproxen], the “competition with RNA / nucleic acids binding to FL” value is “consistent with a competition”.
